Test results taken from patent US20240294668A1 (SHANGHAI SYNVIDA BIOTECHNOLOGY, published 2024).

Chains of the proteins cited; added tags and fusions are not shown. Lines headed by an entry give the natural chain unless they say otherwise; changes in a name come on top.
UniProt P00740: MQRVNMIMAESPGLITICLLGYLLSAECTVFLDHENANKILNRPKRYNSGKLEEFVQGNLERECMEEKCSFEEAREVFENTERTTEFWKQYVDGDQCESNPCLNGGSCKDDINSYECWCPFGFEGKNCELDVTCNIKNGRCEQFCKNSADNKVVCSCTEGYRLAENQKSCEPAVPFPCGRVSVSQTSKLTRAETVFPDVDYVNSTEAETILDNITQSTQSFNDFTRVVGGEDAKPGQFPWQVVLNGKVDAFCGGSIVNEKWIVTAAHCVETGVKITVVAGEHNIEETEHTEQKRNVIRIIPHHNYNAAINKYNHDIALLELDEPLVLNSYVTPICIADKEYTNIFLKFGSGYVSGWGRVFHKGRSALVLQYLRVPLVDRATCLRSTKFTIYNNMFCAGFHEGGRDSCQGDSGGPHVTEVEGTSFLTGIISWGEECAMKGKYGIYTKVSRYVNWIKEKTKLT

Target: human FIXa (activated coagulation factor IX) (human) (UniProt P00740)
Test: ELISA screening of hybridoma clones on coated FIXa

B1: FIXa-4 antibody (antibody, V domains shown)
VH: QVTLKESGPGILKPSQTLSLTCSFSGFSLNTPGMGVGWIRQPSGKGLEWLAHIWWDDDKYYNPSLKSQLTISKDTSRNQVFLKITSVDTADTATYYCARSDDVSYALDYWGQGTSVTVSS
VL: DIQMTQSPASLSASVGETVTITCRASENIDSYLAWYQQKQGKSPQLLVYNAKTLADGVPSRFSGSGSGTQFSLKIDSLQPEDFGSHYCQHHDGTTWTFGGGTKLEIK
notes: A subtype test is described, but the isotype and constant regions are not reported; also called anti-FIXa monoclonal antibody; FIX-4 antibody
- binding: binds

These are yes or no findings as the source states them, for the method shown. A result given as binding can be weak or reduced; the word gives no strength.
